# Literature values in US20250041478A1, “FIBROUS POLYPEPTIDE-BASED BIOSCAFFOLD DELIVERY OF THERAPEUTICS TO NEURAL CELLS” (priority 2023, published 2025).
# Where a name gives a salt, the structure may show the parent alone. At least one structure is not confirmed: it was looked up by name or label, or the drawing left a doubt.
# Test system: PC12 cells
# Conditions: literature
smiles,measurement,value
"CN(C)c1ccc(O)c2c1C[C@H]1C[C@H]3[C@H](N(C)C)C(O)=C(C(N)=O)C(=O)[C@@]3(O)C(O)=C1C2=O [MH, minocycline hydrochloride]",concentration of MH at which PC12 cells maintain good cell viability and differentiation,30 µM
